Assay results taken from publication PMC13039736.
No constants are given. Whether binding was seen depends on the method and setting. In cells and extracts the contact can be indirect. Some results given as binding are weak or reduced against the parent protein; the word gives no strength. For some assays here: Sequences can lack the tags named with a protein.

Chains of the proteins cited; added tags and fusions are not shown. Lines headed by an entry give the natural chain unless they say otherwise; changes in a name come on top. Residues count along the entry.
UniProt Q9UNI6: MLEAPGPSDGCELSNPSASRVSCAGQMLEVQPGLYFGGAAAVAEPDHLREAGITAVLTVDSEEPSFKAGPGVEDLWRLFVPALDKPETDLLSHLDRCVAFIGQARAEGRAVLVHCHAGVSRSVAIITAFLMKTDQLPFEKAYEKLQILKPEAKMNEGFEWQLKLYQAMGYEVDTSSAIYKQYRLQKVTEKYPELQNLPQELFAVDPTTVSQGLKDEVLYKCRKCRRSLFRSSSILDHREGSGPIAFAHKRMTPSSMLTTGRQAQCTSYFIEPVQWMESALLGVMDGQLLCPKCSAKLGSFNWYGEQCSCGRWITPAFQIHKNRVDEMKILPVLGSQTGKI
LAP-DUSP12 C-terminus truncation (amino acids 169-340): residues 169-340 of Q9UNI6

Assays:
[1] = target: HA-DUSP12 C-terminus truncation (amino acids 169-340) (UniProt Q9UNI6); experiment: co-IP; in vitro binding assay: HA-tagged DUSP12 forms and FLAG-ZNF622 expressed by coupled in vitro transcription/translation, incubated together with anti-HA magnetic beads 1.5 h at 4 C, washed with LAP200 buffer (200 mM KCl, 0.05% NP-40, 0.5 mM DTT); immunoblot
HA-DUSP12-R121A = HA-DUSP12-R121A (UniProt Q9UNI6); experiment: as above
HA-DUSP12-C115A = HA-DUSP12-C115A (UniProt Q9UNI6); experiment: as above
[2] = target: HA-DUSP12-WT (full length) (UniProt Q9UNI6); experiment: as above
LAP-DUSP12-C115A = LAP-DUSP12-C115A (UniProt Q9UNI6); experiment: co-IP; LAP-tagged induced HeLa stable cell lines (asynchronous or Taxol-arrested) lysed, incubated with S-protein Agarose 2 h at 4 C, washed with LAP100 buffer (100 mM KCl, 0.05% NP-40, 0.5 mM DTT); immunoblot for ZNF622
[3] = target: LAP-DUSP12 C-terminus truncation (amino acids 169-340) (UniProt Q9UNI6); experiment: as above
LAP-DUSP12-R121A = LAP-DUSP12-R121A (UniProt Q9UNI6); experiment: as above
[4] = target: LAP-DUSP12-WT (full length) (UniProt Q9UNI6); experiment: as above

Measured: binding

B1: FLAG-ZNF622 (protein, UniProt Q969S3 1-477)
chain: MATYTCITCRVAFRDADMQRAHYKTDWHRYNLRRKVASMAPVTAEGFQERVRAQRAVAEEESKGSATYCTVCSKKFASFNAYENHLKSRRHVELEKKAVQAVNRKVEMMNEKNLEKGLGVDSVDKDAMNAAIQQAIKAQPSMSPKKAPPAPAKEARNVVAVGTGGRGTHDRDPSEKPPRLQWFEQQAKKLAKQQEEDSEEEEEDLDGDDWEDIDSDEELECEDTEAMDDVVEQDAEEEEAEEGPPLGAIPITDCLFCSHHSSSLMKNVAHMTKDHSFFIPDIEYLSDIKGLIKYLGEKVGVGKICLWCNEKGKSFYSTEAVQAHMNDKSHCKLFTDGDAALEFADFYDFRSSYPDHKEGEDPNKAEELPSEKNLEYDDETMELILPSGARVGHRSLMRYYKQRFGLSRAVAVAKNRKAVGRVLQQYRALGWTGSTGAALMRERDMQYVQRMKSKWMLKTGMKNNATKQMHFRVQVRF
binds: [1] | HA-DUSP12-R121A | HA-DUSP12-C115A | [2]

B2: zinc finger protein 622 (ZNF622), endogenous (protein, UniProt Q969S3 1-477)
chain: MATYTCITCRVAFRDADMQRAHYKTDWHRYNLRRKVASMAPVTAEGFQERVRAQRAVAEEESKGSATYCTVCSKKFASFNAYENHLKSRRHVELEKKAVQAVNRKVEMMNEKNLEKGLGVDSVDKDAMNAAIQQAIKAQPSMSPKKAPPAPAKEARNVVAVGTGGRGTHDRDPSEKPPRLQWFEQQAKKLAKQQEEDSEEEEEDLDGDDWEDIDSDEELECEDTEAMDDVVEQDAEEEEAEEGPPLGAIPITDCLFCSHHSSSLMKNVAHMTKDHSFFIPDIEYLSDIKGLIKYLGEKVGVGKICLWCNEKGKSFYSTEAVQAHMNDKSHCKLFTDGDAALEFADFYDFRSSYPDHKEGEDPNKAEELPSEKNLEYDDETMELILPSGARVGHRSLMRYYKQRFGLSRAVAVAKNRKAVGRVLQQYRALGWTGSTGAALMRERDMQYVQRMKSKWMLKTGMKNNATKQMHFRVQVRF
binds: LAP-DUSP12-C115A | [3] | LAP-DUSP12-R121A | [4]
